According to article doi:10.1101/2020.02.19.956243:
No constants are given. Whether binding was seen depends on the method and setting. Binding seen in cells or lysates may run through a third protein. For some assays here: Tags and fused reporters may be left off the sequences shown.

Sequences of proteins named here, by UniProt entry; tags and fusion partners are left off. A change or cut given only in a name is not applied to a line headed by its entry.
UniProt Q13547, whole entry, stated change not applied: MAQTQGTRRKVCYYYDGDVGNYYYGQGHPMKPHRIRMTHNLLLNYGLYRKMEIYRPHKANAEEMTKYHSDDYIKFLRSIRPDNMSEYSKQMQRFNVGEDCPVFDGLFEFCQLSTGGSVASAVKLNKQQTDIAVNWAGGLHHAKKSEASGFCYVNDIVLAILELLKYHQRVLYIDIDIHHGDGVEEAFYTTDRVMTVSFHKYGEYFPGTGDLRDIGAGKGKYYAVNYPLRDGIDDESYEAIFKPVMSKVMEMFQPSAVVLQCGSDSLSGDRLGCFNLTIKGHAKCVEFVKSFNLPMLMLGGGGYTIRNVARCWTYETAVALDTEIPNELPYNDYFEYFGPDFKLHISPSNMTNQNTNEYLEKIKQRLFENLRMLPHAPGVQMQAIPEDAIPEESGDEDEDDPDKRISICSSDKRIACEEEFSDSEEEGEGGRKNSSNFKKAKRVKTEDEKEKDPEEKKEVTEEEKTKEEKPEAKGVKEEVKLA

How the values were obtained:
HA-tagged HDAC1 = HA-tagged HDAC1 (UniProt Q13547); experiment: co-IP
HA-tagged SIN3A = target: T1, HA-tagged SIN3A (UniProt Q96ST3); experiment: co-IP
T1 sequence: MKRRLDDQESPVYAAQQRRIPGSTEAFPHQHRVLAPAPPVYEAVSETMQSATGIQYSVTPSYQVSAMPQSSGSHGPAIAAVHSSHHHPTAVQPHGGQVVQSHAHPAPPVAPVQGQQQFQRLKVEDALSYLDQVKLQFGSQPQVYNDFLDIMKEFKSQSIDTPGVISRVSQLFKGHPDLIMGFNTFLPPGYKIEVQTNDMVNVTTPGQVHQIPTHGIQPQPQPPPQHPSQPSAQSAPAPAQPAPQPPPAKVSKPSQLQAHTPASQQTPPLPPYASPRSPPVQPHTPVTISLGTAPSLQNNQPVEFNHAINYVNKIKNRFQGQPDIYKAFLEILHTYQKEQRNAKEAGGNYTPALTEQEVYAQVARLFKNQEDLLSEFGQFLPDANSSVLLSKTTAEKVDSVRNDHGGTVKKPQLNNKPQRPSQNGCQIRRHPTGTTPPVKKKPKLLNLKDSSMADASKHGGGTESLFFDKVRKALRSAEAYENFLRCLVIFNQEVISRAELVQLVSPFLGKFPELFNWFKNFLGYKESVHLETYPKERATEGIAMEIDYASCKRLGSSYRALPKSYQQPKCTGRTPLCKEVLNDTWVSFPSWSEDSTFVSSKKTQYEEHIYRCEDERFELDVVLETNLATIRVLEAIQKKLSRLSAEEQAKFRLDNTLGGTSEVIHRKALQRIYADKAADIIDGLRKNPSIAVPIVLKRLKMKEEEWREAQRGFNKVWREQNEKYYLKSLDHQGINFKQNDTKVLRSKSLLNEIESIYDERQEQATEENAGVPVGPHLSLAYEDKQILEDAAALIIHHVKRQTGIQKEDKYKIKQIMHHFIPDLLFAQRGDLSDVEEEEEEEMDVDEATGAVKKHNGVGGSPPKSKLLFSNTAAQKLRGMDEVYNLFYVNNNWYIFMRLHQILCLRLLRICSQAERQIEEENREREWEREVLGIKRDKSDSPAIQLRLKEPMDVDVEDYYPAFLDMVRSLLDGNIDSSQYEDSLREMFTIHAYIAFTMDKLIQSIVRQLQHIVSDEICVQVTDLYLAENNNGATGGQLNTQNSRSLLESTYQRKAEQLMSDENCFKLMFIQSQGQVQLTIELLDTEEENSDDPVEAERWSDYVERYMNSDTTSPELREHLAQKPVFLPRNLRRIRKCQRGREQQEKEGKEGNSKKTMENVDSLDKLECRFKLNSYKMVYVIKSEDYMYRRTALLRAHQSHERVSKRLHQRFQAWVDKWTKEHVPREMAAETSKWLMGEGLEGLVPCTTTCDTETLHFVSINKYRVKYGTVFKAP

binding (HA-tagged HDAC1): no binding
binding (HA-tagged SIN3A): no binding
Substance: FLAG-tagged HoxA11 ΔAla internal deletion mutant (mouse) (from UniProt P31311)
